Measurements from PMC8610286.
No constants are given. Whether binding was seen depends on the method and setting. Binding seen in cells or lysates may run through a third protein. Some results given as binding are weak or reduced against the parent protein; the word gives no strength. Where a sequence is shown, tags or fusion partners need not be part of it.

By UniProt entry, the sequences of proteins in these tests, tags left out. Residues count along the entry.
UniProt P56703, residues 22-355: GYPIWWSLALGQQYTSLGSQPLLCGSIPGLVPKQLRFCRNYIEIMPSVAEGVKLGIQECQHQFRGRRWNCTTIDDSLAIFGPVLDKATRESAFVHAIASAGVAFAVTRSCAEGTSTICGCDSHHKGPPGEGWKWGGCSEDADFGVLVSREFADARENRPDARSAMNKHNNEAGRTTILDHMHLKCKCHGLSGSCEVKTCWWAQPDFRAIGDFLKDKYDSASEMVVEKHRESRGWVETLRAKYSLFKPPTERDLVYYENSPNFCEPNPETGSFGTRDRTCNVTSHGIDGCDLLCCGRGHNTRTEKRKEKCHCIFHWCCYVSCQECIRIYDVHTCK
UniProt Q2I0M5, residues 20-234: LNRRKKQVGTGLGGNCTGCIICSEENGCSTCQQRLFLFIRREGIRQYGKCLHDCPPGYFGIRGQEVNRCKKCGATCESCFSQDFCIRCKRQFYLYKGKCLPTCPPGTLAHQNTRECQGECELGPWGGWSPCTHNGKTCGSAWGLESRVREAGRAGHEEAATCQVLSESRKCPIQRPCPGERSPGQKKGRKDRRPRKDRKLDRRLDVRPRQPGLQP
UniProt Q9BWU1: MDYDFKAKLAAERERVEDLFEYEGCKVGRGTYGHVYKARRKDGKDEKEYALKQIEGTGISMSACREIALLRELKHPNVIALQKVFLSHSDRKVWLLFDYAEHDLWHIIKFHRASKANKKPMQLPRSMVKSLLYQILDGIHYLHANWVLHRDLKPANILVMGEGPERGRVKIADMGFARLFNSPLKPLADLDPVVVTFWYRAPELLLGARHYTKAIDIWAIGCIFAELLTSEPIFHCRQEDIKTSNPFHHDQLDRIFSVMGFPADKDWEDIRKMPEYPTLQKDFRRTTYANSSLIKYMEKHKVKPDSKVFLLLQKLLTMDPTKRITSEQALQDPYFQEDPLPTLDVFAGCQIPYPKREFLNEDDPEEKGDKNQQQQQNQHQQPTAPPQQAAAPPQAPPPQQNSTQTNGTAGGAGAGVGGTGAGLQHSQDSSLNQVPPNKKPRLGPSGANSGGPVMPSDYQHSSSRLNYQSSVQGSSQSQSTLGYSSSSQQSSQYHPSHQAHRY
UniProt P27361: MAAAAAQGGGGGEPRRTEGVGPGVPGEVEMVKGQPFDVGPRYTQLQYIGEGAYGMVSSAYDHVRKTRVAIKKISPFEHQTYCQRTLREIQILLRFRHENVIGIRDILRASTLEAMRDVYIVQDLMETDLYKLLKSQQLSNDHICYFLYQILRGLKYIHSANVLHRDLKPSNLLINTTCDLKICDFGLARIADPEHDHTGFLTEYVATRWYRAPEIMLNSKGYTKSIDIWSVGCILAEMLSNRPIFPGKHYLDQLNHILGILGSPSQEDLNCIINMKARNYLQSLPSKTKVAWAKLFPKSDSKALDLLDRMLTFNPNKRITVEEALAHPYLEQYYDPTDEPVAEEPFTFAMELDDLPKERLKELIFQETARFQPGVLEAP
UniProt P35916, residues 25-1363: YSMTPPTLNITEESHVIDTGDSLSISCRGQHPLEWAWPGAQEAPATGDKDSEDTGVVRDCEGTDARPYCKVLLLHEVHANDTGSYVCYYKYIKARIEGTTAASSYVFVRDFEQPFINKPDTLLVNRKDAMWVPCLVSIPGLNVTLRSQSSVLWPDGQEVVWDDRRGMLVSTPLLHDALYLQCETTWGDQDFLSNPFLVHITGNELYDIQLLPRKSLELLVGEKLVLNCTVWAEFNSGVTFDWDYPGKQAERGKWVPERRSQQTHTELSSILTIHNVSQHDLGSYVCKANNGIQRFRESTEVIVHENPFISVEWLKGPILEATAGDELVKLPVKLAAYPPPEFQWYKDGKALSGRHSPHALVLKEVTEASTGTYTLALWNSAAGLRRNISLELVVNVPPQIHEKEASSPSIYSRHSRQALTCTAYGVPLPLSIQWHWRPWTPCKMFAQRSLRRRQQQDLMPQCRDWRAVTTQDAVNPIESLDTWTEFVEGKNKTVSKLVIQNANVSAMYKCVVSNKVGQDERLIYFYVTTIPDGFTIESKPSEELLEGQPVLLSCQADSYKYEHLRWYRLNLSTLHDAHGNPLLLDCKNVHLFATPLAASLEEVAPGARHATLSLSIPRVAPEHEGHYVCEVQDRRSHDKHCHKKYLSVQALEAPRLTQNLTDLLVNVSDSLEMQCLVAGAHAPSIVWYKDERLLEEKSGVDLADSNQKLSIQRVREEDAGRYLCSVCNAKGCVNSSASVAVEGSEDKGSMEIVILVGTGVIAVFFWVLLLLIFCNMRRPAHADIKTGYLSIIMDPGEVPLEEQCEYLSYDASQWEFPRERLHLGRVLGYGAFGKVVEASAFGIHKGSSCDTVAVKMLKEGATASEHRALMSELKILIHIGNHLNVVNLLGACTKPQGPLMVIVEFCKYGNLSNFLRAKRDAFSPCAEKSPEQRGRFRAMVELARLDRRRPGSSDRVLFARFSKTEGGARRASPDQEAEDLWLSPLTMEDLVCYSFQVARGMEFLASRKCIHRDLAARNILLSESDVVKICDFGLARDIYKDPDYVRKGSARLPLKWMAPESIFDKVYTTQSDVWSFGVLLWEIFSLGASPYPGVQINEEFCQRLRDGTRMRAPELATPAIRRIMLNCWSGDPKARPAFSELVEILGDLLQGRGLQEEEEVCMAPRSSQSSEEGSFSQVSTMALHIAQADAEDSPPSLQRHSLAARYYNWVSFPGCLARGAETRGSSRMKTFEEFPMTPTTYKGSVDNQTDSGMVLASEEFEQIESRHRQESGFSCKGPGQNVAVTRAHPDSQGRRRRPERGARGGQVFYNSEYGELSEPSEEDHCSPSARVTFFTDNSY
UniProt P49336: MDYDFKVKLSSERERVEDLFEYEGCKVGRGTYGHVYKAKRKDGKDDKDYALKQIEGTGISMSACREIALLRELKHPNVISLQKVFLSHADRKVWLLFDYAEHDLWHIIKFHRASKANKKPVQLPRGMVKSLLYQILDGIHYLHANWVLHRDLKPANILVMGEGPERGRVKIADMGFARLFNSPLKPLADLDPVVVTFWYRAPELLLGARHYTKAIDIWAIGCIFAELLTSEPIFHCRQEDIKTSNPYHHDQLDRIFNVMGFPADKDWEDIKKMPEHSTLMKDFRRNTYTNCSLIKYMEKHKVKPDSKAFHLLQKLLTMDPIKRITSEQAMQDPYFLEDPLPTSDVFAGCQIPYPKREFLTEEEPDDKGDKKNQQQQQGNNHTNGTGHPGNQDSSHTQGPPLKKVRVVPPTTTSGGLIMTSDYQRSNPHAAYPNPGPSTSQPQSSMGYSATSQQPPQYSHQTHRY

T1: FLAG-tagged SHC2 (UniProt P98077)
T1 sequence: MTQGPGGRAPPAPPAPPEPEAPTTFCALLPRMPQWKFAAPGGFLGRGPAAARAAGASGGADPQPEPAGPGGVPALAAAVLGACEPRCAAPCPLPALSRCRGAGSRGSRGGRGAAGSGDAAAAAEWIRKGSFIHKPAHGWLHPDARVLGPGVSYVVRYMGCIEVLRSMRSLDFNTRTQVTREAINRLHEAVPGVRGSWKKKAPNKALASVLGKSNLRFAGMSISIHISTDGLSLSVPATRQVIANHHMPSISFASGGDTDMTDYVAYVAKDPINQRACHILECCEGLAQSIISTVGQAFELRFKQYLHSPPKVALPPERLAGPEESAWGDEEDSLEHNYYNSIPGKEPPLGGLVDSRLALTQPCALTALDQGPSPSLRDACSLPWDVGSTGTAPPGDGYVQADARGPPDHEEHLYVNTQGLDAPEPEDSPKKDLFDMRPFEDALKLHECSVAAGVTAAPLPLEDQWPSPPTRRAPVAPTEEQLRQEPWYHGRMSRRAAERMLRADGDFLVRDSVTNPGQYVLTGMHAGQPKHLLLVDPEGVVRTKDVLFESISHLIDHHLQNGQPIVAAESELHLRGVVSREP

B1: HA-tagged LHX1 (protein, UniProt P48742 1-406)
chain: MVHCAGCKRPILDRFLLNVLDRAWHVKCVQCCECKCNLTEKCFSREGKLYCKNDFFRCFGTKCAGCAQGISPSDLVRRARSKVFHLNCFTCMMCNKQLSTGEELYIIDENKFVCKEDYLSNSSVAKENSLHSATTGSDPSLSPDSQDPSQDDAKDSESANVSDKEAGSNENDDQNLGAKRRGPRTTIKAKQLETLKAAFAATPKPTRHIREQLAQETGLNMRVIQVWFQNRRSKERRMKQLSALGARRHAFFRSPRRMRPLVDRLEPGELIPNGPFSFYGDYQSEYYGPGGNYDFFPQGPPSSQAQTPVDLPFVPSSGPSGTPLGGLEHPLPGHHPSSEAQRFTDILAHPPGDSPSPEPSLPGPLHSMSAEVFGPSPPFSSLSVNGGASYGNHLSHPPEMNEAAVW
B2: HA-tagged ZN619 (protein, UniProt Q8N2I2 1-560)
chain: MGQPAPYAEGPIQGGDAGELCKCDFLVSISIPQTRSDIPAGARRSSMGPRSLDTCWGRGPERHVHRLECNGVIFTHRNLCLPGGKTKTENEEKTAQLNISKESESHRLIVEGLLMDVPQHPDFKDRLEKSQLHDTGNKTKIGDCTDLTVQDHESSTTEREEIARKLEESSVSTHLITKQGFAKEQVFYKCGECGSYYNPHSDFHLHQRVHTNEKPYTCKECGKTFRYNSKLSRHQKIHTGEKPYSCEECGQAFSQNSHLLQHQKLHGGQRPYECTDCGKTFSYNSKLIRHQRIHTGEKPFKCKECGKAFSCSYDCIIHERIHNGEKPYECKECGKSLSSNSVLIQHQRIHTGEKPYECKECGKAFHRSSVFLQHQRFHTGEQLYKCNECWKTFSCSSRFIVHQRIHNGEKPYECQECGKTFSQKITLVQHQRVHTGEKPYECKECGKAFRWNASFIQHQKWHTRKKLINGTGLSAVKPYCPCAILSPLPPQHTCSALAPPGPPLSSSHAVVLPPSVPFFLLLPSSEKANPSPVQIAHFFQDLAFPGKSSLQSPNPLSHSL

Experiments:
[1] = biological target: FLAG-tagged WNT3 (UniProt P56703); assay: co-IP; LN229 glioblastoma cells co-transfected with an HA-tagged construct of a predicted gene and FLAG-tagged WNT3 or FLAG-tagged SHC2; interactions determined by immunoblotting
[2] = biological target: T1, FLAG-tagged SHC2; assay: as above

| Molecule | binding [1] | binding [2] |
| --- | --- | --- |
| HA-tagged RSPO4 (from UniProt Q2I0M5 20-234) | binds | binds |
| HA-tagged CDK19 (from UniProt Q9BWU1 1-502) | binds | binds |
| HA-tagged MAPK3 (from UniProt P27361 1-379) | binds | binds |
| HA-tagged VGFR3 (from UniProt P35916 25-1363) | binds | binds |
| HA-tagged CDK8 (from UniProt P49336 1-464) | binds | binds |
| B1 | binds | binds |
| B2 | no binding | binds |
